{"sequences": {"note": "Sequences of proteins named here, by UniProt entry; tags and fusion partners are left off. Residues count along the entry.", "UniProt P49841": "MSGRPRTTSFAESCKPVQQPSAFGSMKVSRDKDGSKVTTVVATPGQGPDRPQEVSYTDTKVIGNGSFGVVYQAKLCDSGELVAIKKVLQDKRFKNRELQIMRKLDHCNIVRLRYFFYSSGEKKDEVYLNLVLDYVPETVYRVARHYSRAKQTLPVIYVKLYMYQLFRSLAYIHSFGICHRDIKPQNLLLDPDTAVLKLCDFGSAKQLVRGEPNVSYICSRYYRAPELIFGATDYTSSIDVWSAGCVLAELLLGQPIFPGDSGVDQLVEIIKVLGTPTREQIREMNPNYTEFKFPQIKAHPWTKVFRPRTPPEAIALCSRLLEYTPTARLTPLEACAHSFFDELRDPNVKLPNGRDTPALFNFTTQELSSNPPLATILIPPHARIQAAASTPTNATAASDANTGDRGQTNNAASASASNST", "UniProt P11021, residues 19-654": "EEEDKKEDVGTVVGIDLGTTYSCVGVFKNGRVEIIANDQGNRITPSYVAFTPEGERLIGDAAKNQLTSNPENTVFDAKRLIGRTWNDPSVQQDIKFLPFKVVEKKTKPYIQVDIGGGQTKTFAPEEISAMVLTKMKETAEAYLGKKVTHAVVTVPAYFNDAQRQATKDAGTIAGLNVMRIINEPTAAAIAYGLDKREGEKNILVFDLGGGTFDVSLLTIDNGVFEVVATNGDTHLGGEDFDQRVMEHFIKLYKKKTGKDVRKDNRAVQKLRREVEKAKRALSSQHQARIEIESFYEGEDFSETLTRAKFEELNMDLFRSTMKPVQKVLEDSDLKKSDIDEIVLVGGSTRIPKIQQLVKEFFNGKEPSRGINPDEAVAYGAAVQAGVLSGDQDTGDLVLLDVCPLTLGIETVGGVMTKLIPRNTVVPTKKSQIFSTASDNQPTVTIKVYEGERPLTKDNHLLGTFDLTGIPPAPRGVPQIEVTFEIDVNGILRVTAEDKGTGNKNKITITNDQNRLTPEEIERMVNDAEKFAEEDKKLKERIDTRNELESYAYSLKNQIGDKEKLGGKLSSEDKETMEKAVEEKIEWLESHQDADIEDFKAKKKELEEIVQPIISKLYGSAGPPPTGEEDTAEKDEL"}, "source": "paper PMC12061250", "molecular_target": "Glycogen synthase kinase 3β (human (endogenous in macrophages from ITP patients)) (UniProt P49841)", "assay": "affinity purification with mass spectrometry; lysate of M0 macrophages from ITP patients incubated with anti GSK-3β antibody and protein A/G magnetic beads at 4 °C overnight; precipitate digested and analysed by LC-MS/MS; two independent samples, overlapped proteins used", "note": "Results are given in words; binding and its absence hold for the method and conditions named. In cells and extracts the contact can be indirect. Here binding means that the protein was enriched with, or labelled near, the bait; the list need not be complete."}
{"substance": "HSPA5 (also known as GRP78 and BiP) (from UniProt P11021 19-654)", "values": [{"measurement": "binding", "result": "binds"}]}
